Patent publication US7446079B2, “Perfumes for rinse-off systems” (Givaudan Fragrances Corporation, priority 2005, dated 2008)

Assay: GC-MS headspace release profile of Tropical Fruit perfume in shampoo, 1/100 dilution in water
Assay type: physicochemical
Experimental: A 10 gram sample of formulation and fragrance was added to an empty 1000 ml pyrex beaker. This beaker was then filled with 1000 ml of 120 F tap water. Beaker with diluted shampoo sample was then immediately placed into a semi-enclosed plexiglass chamber.
Headspace Sampling: Once beaker was placed into chamber a Carboxan SPME field fiber was held at the top-side opening of the chamber over the beaker containing the sample. […] […] Top of plexiglass chamber was held open for entire 5 minutes of headspace sampling.

With `CCCCCCCC1CCC(=O)O1` (centres unmarked) [GAMMA UNDECALACTONE] the “GC Abundance” value (headspace at 40 seconds) was 4000 and the “GC Abundance” value (headspace at 50 seconds) was 7000.
